{"source": "patent US20250027045A1", "about": "“ESTABLISHMENT OF ERYTHROID PRECURSOR CELL LINE CAPABLE OF CONDITIONAL MATURATION USING GENE OVEREXPRESSION” (IUCF-HYU (INDUSTRY-UNIVERSITY COOPERATION FOUNDATION …, priority 2021, published 2025)", "tested_on": "E6/E7-transduced cells", "test": "Culture without doxycycline (Tet-on system check) in long-term culture", "type": "cell-based, human", "settings": "day 79 of culture, three days in medium without doxycycline", "note": "Entries after “also recorded” stand apart in the source; their conditions may differ. For at least one compound, name, drawing or mass did not settle the structure.", "data": [{"smiles": "C[C@H]1c2cccc(O)c2C(=O)C2=C(O)[C@]3(O)C(=O)C(C(N)=O)=C(O)[C@@H](N(C)C)[C@@H]3[C@@H](O)[C@@H]21", "note": "[doxycycline]", "values": [{"measurement": "state of cells cultured without doxycycline", "value": "the cells cultured without doxycycline died; also recorded: cells were found to be dead"}]}]}
